Results are given in words; binding and its absence hold for the method and conditions named. Some results given as binding are weak or reduced against the parent protein; the word gives no strength. Sequences can lack the tags named with a protein.
Target: T1, Gal4 DNA-binding domain (DB)-Pex19p (S. cerevisiae) (UniProt Q07418)
T1 sequence: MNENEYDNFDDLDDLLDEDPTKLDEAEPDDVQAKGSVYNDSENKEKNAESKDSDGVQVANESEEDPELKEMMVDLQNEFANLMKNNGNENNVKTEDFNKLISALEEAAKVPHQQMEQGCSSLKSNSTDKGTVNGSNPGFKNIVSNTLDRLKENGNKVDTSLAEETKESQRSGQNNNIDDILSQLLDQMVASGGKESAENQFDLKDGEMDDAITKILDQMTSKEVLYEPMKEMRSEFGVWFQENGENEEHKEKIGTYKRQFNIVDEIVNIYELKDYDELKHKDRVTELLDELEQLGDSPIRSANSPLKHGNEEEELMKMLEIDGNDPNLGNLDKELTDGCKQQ
Experiment: two-hybrid

B1: Gal4 activation domain (AD)-Pex34p (protein, UniProt P25584 1-144)
chain: MVSKKNTAEISAKDIWENIWSGVSSLLDFFAVLENLGVVNDKLYVSGLLRKVWLCYSCISVIKCVWKLIKLCKVKFKIDQRLDGEGNGLVKDKLINFKKKYNEHIRHITAALLQDLSYLMVLIYPGTRLFKRLSNIITLCRIIV
binding: binds

From doi:10.1101/2021.05.31.446392
